Test results: patent publication US7785828B1 (priority 2003, dated 2010)

assay: Quantitative competition ELISA of NP and defensin concentration in planta; settings: homogenised leaf from the transgenic wheat plant

| Sequence | expression level in planta |
| --- | --- |
| QKLCQKPSRTWSGVCGNNNACKNQCIRLEKARHGSCNYVFPAHKCICYFPC (Defensin like) [L2-12] | comparable to the Rs-AFP2 wild type |
| NLCERASKTWSGNCGNTKHCDNQCKNWEGAKHGACHVRNGKHKCFCYFNC [L6-28] (Defensin like) | Low expression levels |
| QKLCQRPSGTWSGVCMNNNACKNQCIRLEKAKHGSCNYVFPAHKCICYFPC (Defensin like) [L2-52] | comparable to the Rs-AFP2 wild type |
